Measurements taken from US10688099B2, “Methods for modulating the amount of RNA transcripts” (PTC Therapeutics, Inc., priority 2013, dated 2020).
Further values from the same series stand in other lists.

Test system: RNA isoforms in PNN 1-46 SMA type I patient-derived fibroblasts
Experiment: RNA Abundance Modulation (RNA isoform abundance, iFPM, HiSeq RNA sequencing)
Type: cell-based, human
Conditions: 3 μM
Description: Cells from a cell line of interest are cultured in conditions sufficient to yield the number of cells capable of generating enough RNA for subsequent sequencing steps. Cells from the tested cell line are contacted with a compound described herein.
To culture said cells, they are seeded, at appropriate concentrations in a volume of media in a cell culture container and incubated for 4, 5, 6, 7, 8, 9, 10, or more hours. A concentrated solution of compound in a vehicle (e.g., DMSO) is then added in sufficient volume to result in the intended final concentration of the compound, for example 100 nM, 500 nM, 1 μM, 5 μM, 10 μM, 15 μM, 20 μM, or more. The cells may also be treated with vehicle alone, as a control. A number of replicates of each concentration or control may be made (e.g., 2 replicates). The cells are then incubated at a constant temperature appropriate for cell culture of the particular cell line (e.g., 37° C.) for 6, 12, 18, 24, 48, or more hours. After incubation, the growth medium is removed and the cells are washed with the appropriate buffer (e.g., PBS). Cells are then removed from adherence to the cell culture container by treatment with a solution containing trypsin, and the trypsin subsequently quenched with the appropriate volume of buffer (e.g., DMEM-FBS). The cells are then pelleted with gentle centrifugation (e.g., ≤90×g centrifugal force) and resuspended in a buffer to lyse the cells for extraction of RNA. The cell lysates may then be frozen (e.g., at −80° C.) or, alternately, may immediately be used in a procedure to purify the RNA (e.g. by use of the RNEASY PLUS® minikit). The RNA from cell lysates is eluted in the appropriate volume of buffer (e.g., RNEASE-FREE H2O®). The resulting purified RNA may then be sequenced (e.g., using RNASeq) or analyzed using a human exon array (e.g., by GENECHIP® human exon array) to determine changes in the RNA levels in those cells treated with compound compared to those cells treated only with DMSO. The purified RNA may also be quantified by other methods known in the art.
Using the RNA data obtained from sequencing, exon array, or other methods, a statistical analysis can reveal changes in the RNA levels of compound-treated compared with control. For example, t-test p-values may be calculated for the data obtained through sequencing and exon array methods in order to compare compound-treated cells to those treated with the DMSO control. […] Analysis of the sequencing and exon array data may then also yield predictions about the cause of the aberrant amount of an RNA transcript in the cells (e.g., perturbation of RNA splicing, RNA transcription, or RNA stability). These predictions may be further confirmed by methods known in the art. For example, RT-PCR and RT-qPCR may be used to confirm the change in amount of RNA transcripts for one or more particular transcripts of interest.
Following the methods described above in Example 1, PNN 1-46 SMA type I patient-derived fibroblasts were treated with 300 nM or 3 μM Compounds 774 and 808 in 0.5% DMSO.
700,000 cells were seeded in 10 mL of medium (DMEM plus 10% FBS) in a T-75 flask. Cells were allowed to attach for at least 4 hrs, after which 50 μL of a 200× compound solution (100% DMSO) was added to each well, and the plate was incubated at 37° C. for 24 hrs.
At the end of the incubation period, the supernatant was removed and the cells where washed with PBS. TrypLE (Invitrogen) express solution was added (e.g. 1.5 mL per one T75 flask). The flasks were incubated for 3 to 5 min at 37° C. The trypsin was then quenched, e.g., by adding 10 mL DMEM-FBS.
Next, the cells were pelleted using gentle centrifugation without exceeding 90×g centrifugal force. The supernatant was removed and the cell pellet was re-suspended in 600 μL RLT buffer (the RLT buffer was supplemented with beta-mercaptoethanol according to the RNeasy protocol manual) by pipetting up and down until the pellet was completely dissolved […]

CCc1nc(C)cn2nc(-c3cc(=O)n4cc(C5CCN(C)CC5)cc(C)c4n3)cc12 [Compound 774]
FC (x + 1) (FOSB EU178113): 1.0000 | L2FC (x + 1) (FOSB EU178113): 0.000 | L2abs (Cpd-DMSO) (FOSB EU178113): 0 | abs (Cpd-DMSO) (FOSB EU178113): 0 iFPM | amp FC (x + 1) (FOSB EU178113): 1.00 | ave Cpd (FOSB EU178113): 0 iFPM | FC (x + 1) (FOSB EU178114): 0.4759 | L2FC (x + 1) (FOSB EU178114): −1.071 | L2abs (Cpd-DMSO) (FOSB EU178114): 2.12 | abs (Cpd-DMSO) (FOSB EU178114): 4 iFPM | amp FC (x + 1) (FOSB EU178114): 2.10 | ave Cpd (FOSB EU178114): 3 iFPM | FC (x + 1) (FOSB EU178115): 0.1144 | L2FC (x + 1) (FOSB EU178115): −3.128 | L2abs (Cpd-DMSO) (FOSB EU178115): 6.73 | abs (Cpd-DMSO) (FOSB EU178115): 106 iFPM | amp FC (x + 1) (FOSB EU178115): 8.74 | ave Cpd (FOSB EU178115): 13 iFPM | FC (x + 1) (FOSB EU178116): 0.1191 | L2FC (x + 1) (FOSB EU178116): −3.070 | L2abs (Cpd-DMSO) (FOSB EU178116): 3.87 | abs (Cpd-DMSO) (FOSB EU178116): 15 iFPM | amp FC (x + 1) (FOSB EU178116): 8.40 | ave Cpd (FOSB EU178116): 1 iFPM | FC (x + 1) (FOSB NM_006732): 0.1243 | L2FC (x + 1) (FOSB NM_006732): −3.008 | L2abs (Cpd-DMSO) (FOSB NM_006732): 4.80 | abs (Cpd-DMSO) (FOSB NM_006732): 28 iFPM | amp FC (x + 1) (FOSB NM_006732): 8.04 | ave Cpd (FOSB NM_006732): 3 iFPM | FC (x + 1) (FOSB NM_001114171): 0.4559 | L2FC (x + 1) (FOSB NM_001114171): −1.133 | L2abs (Cpd-DMSO) (FOSB NM_001114171): 2.95 | abs (Cpd-DMSO) (FOSB NM_001114171): 8 iFPM | amp FC (x + 1) (FOSB NM_001114171): 2.19 | ave Cpd (FOSB NM_001114171): 5 iFPM | FC (x + 1) (FOXM1 NM_021953): 0.2466 | L2FC (x + 1) (FOXM1 NM_021953): −2.020 | L2abs (Cpd-DMSO) (FOXM1 NM_021953): 11.89 | abs (Cpd-DMSO) (FOXM1 NM_021953): 3804 iFPM | amp FC (x + 1) (FOXM1 NM_021953): 4.05 | ave Cpd (FOXM1 NM_021953): 1244 iFPM | FC (x + 1) (FOXM1 NM_202002): 7.8710 | L2FC (x + 1) (FOXM1 NM_202002): 2.977 | L2abs (Cpd-DMSO) (FOXM1 NM_202002): 11.95 | abs (Cpd-DMSO) (FOXM1 NM_202002): 3953 iFPM | amp FC (x + 1) (FOXM1 NM_202002): 7.87 | ave Cpd (FOXM1 NM_202002): 4527 iFPM | FC (x + 1) (FOXM1 NM_001243088): 0.7976 | L2FC (x + 1) (FOXM1 NM_001243088): −0.326 | L2abs (Cpd-DMSO) (FOXM1 NM_001243088): 7.78 | abs (Cpd-DMSO) (FOXM1 NM_001243088): 220 iFPM | amp FC (x + 1) (FOXM1 NM_001243088): 1.25 | ave Cpd (FOXM1 NM_001243088): 867 iFPM | FC (x + 1) (FOXM1 NM_001243089): 1.4771 | L2FC (x + 1) (FOXM1 NM_001243089): 0.563 | L2abs (Cpd-DMSO) (FOXM1 NM_001243089): 7.89 | abs (Cpd-DMSO) (FOXM1 NM_001243089): 238 iFPM | amp FC (x + 1) (FOXM1 NM_001243089): 1.48 | ave Cpd (FOXM1 NM_001243089): 735 iFPM | FC (x + 1) (FYN AY429536): 0.7603 | L2FC (x + 1) (FYN AY429536): −0.395
